Data on one substance can be found in publication PMC8228714, “Structural Constraint of Osteopontin Facilitates Efficient Binding to CD44” (Biomolecules, 2021).

Amino acid sequences for entries named in this document (tags omitted). A change or cut given only in a name is not applied to a line headed by its entry. Residues count along the entry.
UniProt Q13797: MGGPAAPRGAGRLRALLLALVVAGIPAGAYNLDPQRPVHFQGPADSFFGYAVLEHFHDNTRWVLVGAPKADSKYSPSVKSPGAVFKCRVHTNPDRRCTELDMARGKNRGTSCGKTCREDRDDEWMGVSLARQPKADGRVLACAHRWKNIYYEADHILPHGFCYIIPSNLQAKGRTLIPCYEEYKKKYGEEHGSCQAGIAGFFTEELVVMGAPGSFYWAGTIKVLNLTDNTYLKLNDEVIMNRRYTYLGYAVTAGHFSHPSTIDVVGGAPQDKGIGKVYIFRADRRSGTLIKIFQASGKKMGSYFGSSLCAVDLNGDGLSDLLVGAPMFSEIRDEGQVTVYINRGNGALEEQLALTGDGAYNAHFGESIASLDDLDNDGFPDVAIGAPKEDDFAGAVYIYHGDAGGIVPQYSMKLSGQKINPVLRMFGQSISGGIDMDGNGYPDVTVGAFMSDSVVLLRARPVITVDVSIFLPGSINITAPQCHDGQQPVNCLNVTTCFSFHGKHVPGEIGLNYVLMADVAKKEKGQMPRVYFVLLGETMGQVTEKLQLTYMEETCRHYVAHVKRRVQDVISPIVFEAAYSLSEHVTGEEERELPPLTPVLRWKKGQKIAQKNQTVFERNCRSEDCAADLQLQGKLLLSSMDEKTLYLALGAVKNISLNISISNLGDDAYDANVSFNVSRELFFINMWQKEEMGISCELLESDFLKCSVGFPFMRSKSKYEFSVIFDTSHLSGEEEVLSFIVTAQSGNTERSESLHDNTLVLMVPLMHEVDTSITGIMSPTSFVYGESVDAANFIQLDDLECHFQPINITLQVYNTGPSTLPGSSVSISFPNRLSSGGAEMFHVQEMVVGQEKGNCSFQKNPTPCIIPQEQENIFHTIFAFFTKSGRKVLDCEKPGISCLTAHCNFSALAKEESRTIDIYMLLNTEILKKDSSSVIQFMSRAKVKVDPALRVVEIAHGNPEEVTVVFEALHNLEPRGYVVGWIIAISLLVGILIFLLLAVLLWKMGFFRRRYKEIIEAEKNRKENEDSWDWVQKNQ
UniProt P13612: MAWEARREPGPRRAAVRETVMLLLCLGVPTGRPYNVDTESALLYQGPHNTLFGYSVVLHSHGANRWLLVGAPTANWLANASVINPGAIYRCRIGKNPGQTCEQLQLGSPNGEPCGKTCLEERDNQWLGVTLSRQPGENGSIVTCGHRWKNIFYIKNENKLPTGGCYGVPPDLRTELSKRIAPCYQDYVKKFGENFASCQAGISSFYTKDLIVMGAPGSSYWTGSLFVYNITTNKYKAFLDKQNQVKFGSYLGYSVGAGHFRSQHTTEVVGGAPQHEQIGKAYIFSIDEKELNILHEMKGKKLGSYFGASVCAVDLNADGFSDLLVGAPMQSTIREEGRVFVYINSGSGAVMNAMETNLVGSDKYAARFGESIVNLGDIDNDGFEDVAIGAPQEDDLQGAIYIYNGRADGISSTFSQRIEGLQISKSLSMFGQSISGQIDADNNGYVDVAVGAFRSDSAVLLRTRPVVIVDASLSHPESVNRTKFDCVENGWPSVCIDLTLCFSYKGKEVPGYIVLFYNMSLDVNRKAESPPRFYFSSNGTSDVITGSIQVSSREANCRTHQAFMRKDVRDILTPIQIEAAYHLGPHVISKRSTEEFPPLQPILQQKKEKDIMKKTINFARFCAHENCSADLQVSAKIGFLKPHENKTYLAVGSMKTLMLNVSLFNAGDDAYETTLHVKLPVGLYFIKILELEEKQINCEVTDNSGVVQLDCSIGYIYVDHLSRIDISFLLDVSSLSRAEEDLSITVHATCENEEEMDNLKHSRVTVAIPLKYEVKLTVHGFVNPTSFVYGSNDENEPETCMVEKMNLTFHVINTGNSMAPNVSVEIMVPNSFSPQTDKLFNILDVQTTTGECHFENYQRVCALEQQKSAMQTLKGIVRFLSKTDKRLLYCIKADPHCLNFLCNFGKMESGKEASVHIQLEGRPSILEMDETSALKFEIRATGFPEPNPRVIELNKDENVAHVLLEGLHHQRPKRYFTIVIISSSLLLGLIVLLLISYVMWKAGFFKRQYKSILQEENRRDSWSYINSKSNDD
UniProt P10451, residues 17-314: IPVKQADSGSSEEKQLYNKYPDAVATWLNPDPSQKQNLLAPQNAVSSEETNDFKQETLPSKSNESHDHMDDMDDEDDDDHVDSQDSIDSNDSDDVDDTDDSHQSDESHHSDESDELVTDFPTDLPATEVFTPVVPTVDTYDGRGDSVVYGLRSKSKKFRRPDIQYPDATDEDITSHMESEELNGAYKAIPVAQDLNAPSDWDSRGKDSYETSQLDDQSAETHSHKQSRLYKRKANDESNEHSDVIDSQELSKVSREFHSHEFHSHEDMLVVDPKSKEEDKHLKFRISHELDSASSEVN

The target of assay [1] is T1, extracellular portion of integrin α9β1 (R&D Systems) (UniProt Q13797 30-977; P05556 21-728).
T1 construct: also called α9β1 extracellular domain; source: bought: R&D Systems
In words: ELISA; receptor (CD44v or integrin) plated on a high-binding 96-well plate, GST-OPN in solution 2 h at room temperature; 10 mM HEPES pH 7.4, 150 mM NaCl, 2 mM MnCl2, 0.05% Tween 20; detection with HRP-anti-GST; constants from double-reciprocal plots; both purified.

The target in assay [2] is extracellular portion of integrin α4β1 (R&D Systems) (UniProt P13612). Described as above.

No constants are given. Whether binding was seen depends on the method and setting. Some entries that bind do so weakly or less than the wild type.

For the substance “Bacterial recombinant GST-OPNa (after deletion of the signal sequence) (from UniProt P10451-1 17-314) (ligand)”, the binding entry in assay [1] and in assay [2] was “binds weakly” throughout.
